Measurements reported in PubChem BioAssay AID504774 (Drosophila RNAi Screening Center, 2011)
The deposit covers about 23,000 reagents; shown is an unselected part of those that have a named target and a result. 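Values are quantile-normalised luminescence on an arbitrary scale; higher means more cells surviving MMS.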 Further read-outs or replicates are left out here.

- Purpose: 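Fly genes whose loss alters survival after alkylation damage to DNA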 (primary screen)
- Cell system: Drosophila Kc167 cells
- Reagents: long dsRNA against Drosophila genes, about 0.25 µg dsRNA per well
- Timing: about 6 days: 3 days knock-down, then 3 days with or without MMS
- Treatment: methyl methanesulphonate 0.004% (w/v) for 3 days after knock-down
- Detection: 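ATP-dependent luminescence as a measure of live cells in MMS-exposed wells, quantile normalised within each plate, with replicate values also given as a mean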
- Scale: mean viability with MMS and viability with MMS: higher = more surviving cells after MMS

l(3)mbt [DRSC16983] | mean viability with MMS: 3.29e6; viability with MMS, replicate 1: 3.80e6
CG15459 [DRSC20530] | mean viability with MMS: 3.63e6; viability with MMS, replicate 1: 4.14e6
CG15459 [DRSC21383] | mean viability with MMS: 3.53e6; viability with MMS, replicate 1: 4.10e6
faf [DRSC16942] | mean viability with MMS: 3.84e6; viability with MMS, replicate 1: 4.48e6
ebd1 [DRSC08565] | mean viability with MMS: 3.41e6; viability with MMS, replicate 1: 3.93e6
ana3 [DRSC06289] | mean viability with MMS: 3.75e6; viability with MMS, replicate 1: 4.11e6
CR42548 [DRSC09514] | mean viability with MMS: 3.55e6; viability with MMS, replicate 1: 3.97e6
CG18265 [DRSC10310] | mean viability with MMS: 3.72e6; viability with MMS, replicate 1: 4.15e6
CG1965 [DRSC12577] | mean viability with MMS: 3.73e6; viability with MMS, replicate 1: 3.94e6
CG1965 [DRSC21828] | mean viability with MMS: 3.41e6; viability with MMS, replicate 1: 3.89e6
mgl [DRSC17800] | mean viability with MMS: 3.81e6; viability with MMS, replicate 1: 4.41e6
mgl [DRSC17823] | mean viability with MMS: 3.62e6; viability with MMS, replicate 1: 4.35e6
mgl [DRSC17859] | mean viability with MMS: 3.65e6; viability with MMS, replicate 1: 4.13e6
mgl [DRSC18004] | mean viability with MMS: 3.54e6; viability with MMS, replicate 1: 4.04e6
CG32733 (retired record) [DRSC17481] | mean viability with MMS: 3.56e6; viability with MMS, replicate 1: 4.13e6
MRG15 [DRSC16731] | mean viability with MMS: 3.61e6; viability with MMS, replicate 1: 4.08e6

The list goes on, starting with the last 2 of the part before.
CG32733 (retired record) [DRSC17481] | mean viability with MMS: 3.56e6; viability with MMS, replicate 1: 4.13e6
MRG15 [DRSC16731] | mean viability with MMS: 3.61e6; viability with MMS, replicate 1: 4.08e6
stops [DRSC15095] | mean viability with MMS: 3.50e6; viability with MMS, replicate 1: 3.94e6
stops [DRSC15096] | mean viability with MMS: 3.58e6; viability with MMS, replicate 1: 4.06e6
stops [DRSC15097] | mean viability with MMS: 3.54e6; viability with MMS, replicate 1: 4.05e6
CG14401 [DRSC02385] | mean viability with MMS: 3.59e6; viability with MMS, replicate 1: 3.99e6
CG14401 [DRSC21710] | mean viability with MMS: 3.24e6; viability with MMS, replicate 1: 3.82e6
Obp44a [DRSC06838] | mean viability with MMS: 3.63e6; viability with MMS, replicate 1: 4.06e6
neo [DRSC16316] | mean viability with MMS: 3.62e6; viability with MMS, replicate 1: 4.16e6
CG31122 [DRSC14787] | mean viability with MMS: 3.49e6; viability with MMS, replicate 1: 3.95e6
CG31122 [DRSC16286] | mean viability with MMS: 3.56e6; viability with MMS, replicate 1: 4.04e6
